Test results published in PubChem BioAssay AID2517 (National Center for Advancing Translational Sciences (NCATS), 2010).
Hit rate of the full screen: of about 350,000 compounds, about 1,200 (0.34%) were called active. Inconclusive results, whose numbers are uncertain, are shown with a selection of clear calls. Calls follow the shape of the dose curve; as a rule, active = well fitted inhibition curve with a large enough effect; inconclusive = small, poorly fitted or top-dose-only effect; inactive = no such curve, though single readings can be large or run the other way. Potencies beside an inconclusive call are fits to weak or partial responses and may not hold up.

Amino acid sequences for entries named in this document (tags omitted).
UniProt P27695, whole entry, looked up: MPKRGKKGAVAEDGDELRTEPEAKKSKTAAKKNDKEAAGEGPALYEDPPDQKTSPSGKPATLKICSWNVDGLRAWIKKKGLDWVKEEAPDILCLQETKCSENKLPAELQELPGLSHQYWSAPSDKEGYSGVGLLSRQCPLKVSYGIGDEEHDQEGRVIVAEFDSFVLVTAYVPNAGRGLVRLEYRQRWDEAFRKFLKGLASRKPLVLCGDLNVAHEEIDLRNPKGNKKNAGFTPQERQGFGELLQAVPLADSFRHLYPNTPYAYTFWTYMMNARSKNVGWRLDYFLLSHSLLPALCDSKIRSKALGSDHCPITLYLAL

molecular target: DNA repair nuclease/redox regulator APEX1 (Homo sapiens) (UniProt P27695); test: qHTS Assay for Inhibitors of the Human Apurinic/apyrimidinic Endonuclease 1 (APE1); conditions: recombinant APE1, TAMRA/BHQ-2 abasic DNA cleavage fluorescence; series mostly up to 65.8 µM; also: nearly all actives have a fitted effect of over 55% in size
In short: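 APE1 at 0.75 nM final was preincubated with compound 15 min at room temperature, then 50 nM double-stranded THF abasic-site substrate (5'-TAMRA/3'-BHQ-2) was added. Fluorescence (ex 525/em 598 nm) was read kinetically; third-minus-first read gave activity.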
Potency is read from the fitted curve at half-maximal effect.

Question: For `Cc1ccnc(NC(=O)Nc2ccc3c(c2)N(C)C(=O)CS3)c1`, which Potency is on record?
Answer: inconclusive: 0.631 µM [inhibitor, full curve]

Question: With `CS(=O)(=O)N(CC(=O)Nc1ccc2c(c1)OCO2)c1ccc(Cl)cc1` as the molecule, how does the Potency read?
Answer: inconclusive: 25.1 µM [inhibitor, single point]

Question: How did the Potency turn out when `CC(C)c1nnc(NC(=O)Cc2cccs2)s1` was run?
Answer: inactive

Question: With `Cc1cc(C(=O)COC(=O)C2=NNC(=O)CC2)c(C)n1CCc1ccccc1` as the molecule, how does the Potency read?
Answer: inconclusive: 0.251 µM [inhibitor, full curve]

Question: For `COc1ccccc1CNC(=O)COC(=O)c1ccc([N+](=O)[O-])o1`, which Potency is on record?
Answer: inconclusive: 37.7 µM [inhibitor, single point]

Question: How did the Potency turn out when `O=C(O)c1cnn2c1C(=O)N(Cc1cccs1)CC2` was run?
Answer: inconclusive: 5.01 µM [inhibitor, partial curve, poor fit]

Question: Which Potency does the source give for `O=C(COc1ccc(S(=O)(=O)N2CCc3ccccc32)cc1Cl)NCc1ccccn1` here?
Answer: inconclusive: 0.355 µM [inhibitor, full curve, poor fit]

Question: Which Potency does the source give for `COc1ccc(-n2c(=O)c(C)nc3cncnc32)cc1` here?
Answer: inconclusive: 2.24 µM [inhibitor, full curve, poor fit]

Question: For `COC(=O)c1ccc(NC(=O)Cc2ccc(C)cc2)cc1`, which Potency is on record?
Answer: inconclusive: 4.47 µM [inhibitor, single point]

Question: `COc1cc(N=Nc2c(O)c3ccccc3[nH]c2=O)c(OC)cc1N=Nc1ccccc1` was tested. Which Potency did it give?
Answer: inconclusive: 44.7 µM [inhibitor, single point]

Question: Which Potency does the source give for `Cc1ccc[n+](CC(=O)Nc2cc(C(F)(F)F)ccc2Cl)c1` here?
Answer: inconclusive: 2.82 µM [inhibitor, single point]

Question: For `CC(C)CCNC(=O)C(CC(C)C)NC(=O)C1OC1C(=O)O` (centres undefined), which Potency is on record?
Answer: inactive

Question: For `COc1ccc(C(=O)Nc2oc(-c3ccccc3)c(-c3ccccc3)c2C#N)cc1`, which Potency is on record?
Answer: inconclusive: 20 µM [inhibitor, partial curve, poor fit]

Question: For `COc1ccc(N2CCN(CCCn3c(=S)[nH]c4ccccc4c3=O)CC2)cc1`, which Potency is on record?
Answer: inconclusive: 29.9 µM [inhibitor, single point]

Question: For `C#CCOC(=O)CCCNc1ccc([N+](=O)[O-])cc1[N+](=O)[O-]`, which Potency is on record?
Answer: inconclusive: 22.4 µM [inhibitor, single point]

Question: Which Potency does the source give for `CC(C)C[C@@H](CC(=O)N[C@H](CC(=O)N[C@@H]1CCCC[C@H]1C(=O)N[C@H](CC(=O)N[C@@H](CCC(=O)O)CC(=O)O)Cc1c[nH]c2ccccc12)C(C)C)NC(=O)[C@@H]1CCCC[C@H]1N` here?
Answer: inactive

Question: `C=CCSc1nc2ccsc2c(=O)n1-c1ccccc1` was tested. Which Potency did it give?
Answer: inconclusive: 17.8 µM [inhibitor, partial curve, poor fit]

Question: For `O=C(NCc1ccco1)c1cc2ccc(O)cc2oc1=O`, which Potency is on record?
Answer: inconclusive: 25.1 µM [inhibitor, partial curve]

Question: For `OCCN1CCN(CCCN2c3ccccc3Sc3ccc(Cl)cc32)CC1`, which Potency is on record?
Answer: inconclusive: 31.6 µM [inhibitor, single point]

Question: For `COC(=O)[C@H](C)N(Cc1ccc(Cl)c(Cl)c1)S(=O)(=O)CCNC1CCCC1`, which Potency is on record?
Answer: inactive

Question: Which Potency does the source give for `COc1ccc(/C=N/Nc2nonc2N)c(OC)c1` here?
Answer: inconclusive: 31.6 µM [inhibitor, partial curve, poor fit]

Question: Which Potency does the source give for `Oc1cccc(Nc2nc(O)c(/C=C3\C=Nc4ccccc43)s2)c1` here?
Answer: inactive

Question: How did the Potency turn out when `CC(=O)N1CCc2c(sc(NC(=O)c3ccc([N+](=O)[O-])o3)c2C#N)C1` was run?
Answer: inconclusive: 22.4 µM [inhibitor, single point]

Question: `CC(=O)Nc1ccc(NC(=O)/C=C/c2cccc(C(F)(F)F)c2)cc1` was tested. Which Potency did it give?
Answer: inactive

Question: With `O=C(O)COc1ccccc1/C=N/NC(=O)c1cccc(S(=O)(=O)N2CCOCC2)c1` as the molecule, how does the Potency read?
Answer: inconclusive: 50.1 µM [inhibitor, single point]

Question: `O=C(CC(=O)N/N=C\c1ccc(F)cc1)NCCc1ccccc1` was tested. Which Potency did it give?
Answer: inconclusive: 44.7 µM [inhibitor, single point]

Question: For `CCn1c(SCC(=O)NC(=O)NCc2ccco2)nnc1-c1cccs1`, which Potency is on record?
Answer: inconclusive: 39.8 µM [inhibitor, single point]

Question: `CCn1c(CSc2n[nH]c(N)n2)nc2cc(C(=O)O)ccc21` was tested. Which Potency did it give?
Answer: inconclusive: 39.8 µM [inhibitor, single point]

Question: With `O=C(c1cccnc1)C1Cc2ccccc2C1=O` (centres undefined) as the molecule, how does the Potency read?
Answer: inconclusive: 39.8 µM [inhibitor, single point]

Question: With `Cc1ccc(NC(=O)COC(=O)c2ccc(F)cc2Cl)c(Br)c1` as the molecule, how does the Potency read?
Answer: inconclusive: 20 µM [inhibitor, single point]

Question: `c1ccc2[nH]c(CN3CCN(c4ncnc5c4oc4ccccc45)CC3)nc2c1` was tested. Which Potency did it give?
Answer: inconclusive: 44.7 µM [inhibitor, single point]

Question: How did the Potency turn out when `C=CCOC(=O)C(C(C)=O)C(NC(=O)OC)c1ccco1` (centres undefined) was run?
Answer: inconclusive: 3.98 µM [inhibitor, single point]

Question: `CCn1c(O)c(/C=C2\C=Nc3ccccc32)sc1=O` was tested. Which Potency did it give?
Answer: inconclusive: 31.6 µM [inhibitor, single point]

Question: `Cc1ccc(/C=C/C(=O)N2CCc3ccccc32)o1` was tested. Which Potency did it give?
Answer: inconclusive: 31.6 µM [inhibitor, partial curve]

Question: Which Potency does the source give for `COc1ccc(C)cc1N=Nc1ccc(O)c2ncccc12` here?
Answer: inactive

Question: Which Potency does the source give for `CC(=O)O[C@@H](C)C#C[Si](C)(C)c1ccccc1` here?
Answer: inactive

Question: Which Potency does the source give for `COc1cc(/C=N/NC(=O)c2cc3c(ccc4ccccc43)o2)cc(OC)c1O` here?
Answer: inconclusive: 37.7 µM [inhibitor, single point]

Question: Which Potency does the source give for `O=C(Oc1ccccc1O)c1cccc2ccccc12` here?
Answer: inconclusive: 44.7 µM [inhibitor, single point]

Question: Which Potency does the source give for `Cc1cc(C)c2c(=O)n(CC(=O)Nc3ccc(Cl)cc3)sc2n1` here?
Answer: inactive

Question: Which Potency does the source give for `S=C(Nc1ccc2c(c1)OCO2)Nc1ccc2c(c1)OCO2` here?
Answer: inconclusive: 2.82 µM [inhibitor, partial curve]

Question: Which Potency does the source give for `C(#Cc1ccccc1)C[N+]1(CC#Cc2cccc3ccccc23)CCCC1` here?
Answer: inconclusive: 2.51 µM [inhibitor, partial curve, poor fit]

Question: `COc1ccc(OCCOC(=O)c2[nH]c(C)c(C(C)=O)c2C)cc1` was tested. Which Potency did it give?
Answer: inconclusive: 50.1 µM [inhibitor, partial curve, poor fit]

Question: `O=C(COc1ccc2c(c1)CCC2)N1CCN(c2cccc(C(F)(F)F)c2)CC1` was tested. Which Potency did it give?
Answer: inconclusive: 7.08 µM [inhibitor, single point]

Question: For `CC(C)(C)OC(=O)N1CCC(C(=O)N[C@H](Cc2ccccc2)C(=O)O)CC1`, which Potency is on record?
Answer: inconclusive: 12.6 µM [inhibitor, partial curve, poor fit]

Question: For `Cc1cccc2c(N=NC(=O)c3ccc(NS(=O)(=O)c4cccs4)cc3)c(O)[nH]c12`, which Potency is on record?
Answer: inconclusive: 10.6 µM [inhibitor, partial curve]

Question: How did the Potency turn out when `O=C1C2C3C=CC(CNS(=O)(=O)c4ccccc4[N+](=O)[O-])(O3)C2C(=O)N1c1ccccc1` (centres undefined) was run?
Answer: inconclusive: 20 µM [inhibitor, partial curve, poor fit]

Question: Which Potency does the source give for `O=C(CCNC(=O)c1ccccc1)NCC1CCCCC1` here?
Answer: inconclusive: 39.8 µM [inhibitor, single point]

Question: `CCOC(=O)CN1C(=O)S/C(=C/c2ccc3c(c2)n(C)c(=O)n3C)C1=O` was tested. Which Potency did it give?
Answer: inactive

Question: With `CCOC(=O)C(=O)N/N=C/c1ccco1` as the molecule, how does the Potency read?
Answer: inconclusive: 20 µM [inhibitor, single point]

Question: `O=C(NNC(=O)C1C2CCCCC21)c1coc(=O)c(Br)c1` (centres undefined) was tested. Which Potency did it give?
Answer: inconclusive: 12.6 µM [inhibitor, partial curve, poor fit]

Question: `COc1cccc([C@@H]2Oc3ccc(Br)cc3C(=O)[C@H]2O)c1` was tested. Which Potency did it give?
Answer: inconclusive: 5.01 µM [inhibitor, full curve, poor fit]

Question: How did the Potency turn out when `COc1ccccc1-c1nnc(SC/C(O)=C(\C#N)c2nc3ccccc3[nH]2)n1C1CCCCC1` was run?
Answer: inactive

Question: `O=C(CSc1ccc(-c2ccco2)nn1)NCc1ccc2c(c1)OCO2` was tested. Which Potency did it give?
Answer: inconclusive: 31.6 µM [inhibitor, single point]

Question: `COc1ccc(OC)c(NC(=O)COC(=O)Cc2ccc(Br)cc2)c1` was tested. Which Potency did it give?
Answer: inconclusive: 39.8 µM [inhibitor, single point]

Question: With `Cn1c(-c2ccc(Br)o2)nc2ccccc21` as the molecule, how does the Potency read?
Answer: inactive

Question: Which Potency does the source give for `O=C(N[C@@H]1C/C=C\C[C@@H](CC(=O)N(CCO)Cc2ccccc2)C(=O)NCCOC1=O)OCC1c2ccccc2-c2ccccc21` here?
Answer: active: 23.8 µM

Question: How did the Potency turn out when `O=C1c2ccccc2C(=O)c2c(NCCCN(CCO)CCO)cccc21` was run?
Answer: inconclusive: 20 µM [inhibitor, single point]

Question: For `CCN(CC)S(=O)(=O)c1ccc(/C=C/C(=O)OCC(=O)NCc2ccc3c(c2)OCO3)cc1`, which Potency is on record?
Answer: inconclusive: 39.8 µM [inhibitor, single point]

Question: With `Cn1c(Cl)c(C(=O)Nc2ccc(Cl)cc2)c2ccccc21` as the molecule, how does the Potency read?
Answer: inconclusive: 1.58 µM [inhibitor, partial curve]

Question: `Cc1ccccc1-c1nc(NCc2cccs2)c2ccccc2n1` was tested. Which Potency did it give?
Answer: inconclusive: 31.6 µM [inhibitor, single point]

Question: Which Potency does the source give for `CC(=O)Cc1nsc(NC(=O)c2ccc(Br)o2)n1` here?
Answer: inconclusive: 12.6 µM [inhibitor, partial curve, poor fit]

Question: `CC1Cc2ccccc2N1C(=O)CSc1nnnn1Cc1ccccc1` (centres undefined) was tested. Which Potency did it give?
Answer: inconclusive: 5.01 µM [inhibitor, single point]

Question: How did the Potency turn out when `CCN(CC)Cc1cc2[nH]c3c4ccc(Cl)cc4ncc3c2cc1OC` was run?
Answer: inconclusive: 28.2 µM [inhibitor, single point]

Question: For `CCOc1ccc(-n2c(SCC(=O)Nc3nccs3)nnc2-c2ccoc2C)cc1`, which Potency is on record?
Answer: inconclusive: 50.1 µM [inhibitor, partial curve, poor fit]
